Experimental data reported in PubChem BioAssay AID493014 (National Center for Advancing Translational Sciences (NCATS), 2011).
About 170 (0.05%) of roughly 340,000 compounds were called active. Inconclusive results, whose numbers are uncertain, are shown with a selection of clear calls. The call rests on the fitted dose curve; in most records, active means well fitted inhibition curve with a large enough effect in the signal ratio, with a control signal flat (not every such curve was filed as active); inconclusive means small, poorly fitted or top-dose-only effect, or effect the other way, or a change in a side signal; inactive means flat fitted curve, though single readings scatter; the % refers to the signal ratio. Where the call is inconclusive, the potency comes from a doubtful curve fit.

test: qHTS Assay to Find Inhibitors of Chronic Active B-Cell Receptor Signaling; settings: ABC-DLBCL IkBa-CBG/CBR reporter, luminescence ratio (green luciferase fused to IkBa over red control in TMD8 lymphoma cells), 4 h; activity change, negative = inhibition: at 46.1 µM (top of the series);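 on activity change, negative = inhibition: plate controls were basal doxycycline-induced cells for no effect and cells given 10 µM MG132 for full effect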
Summary of the method: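 TMD8 ABC-DLBCL cells carrying doxycycline-inducible green luciferase fused to IkappaBalpha plus unfused red luciferase were exposed to compounds (up to 46 uM) for 4 hrs at 37C. Activity came from the overlap-corrected green/red luminescence ratio.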
Potency means the concentration at half of the fitted maximal effect.

Row | Structure (SMILES) | Potency | activity change, negative = inhibition
1 | C=CCn1c(SCC(=O)c2ccc(O)c(O)c2)nnc1-c1cccc(OC)c1 | inconclusive: 10.3 µM [falling, partial curve] | 
2 | COc1ccc(C2=NOC(C(=O)NCc3ccccc3)C2)cc1 (configuration not stated) |  | inconclusive: -19.1%
3 | Cc1cccn2c(=O)c(/C=C(\C#N)C(N)=O)c(N3CCCCCC3)nc12 |  | inconclusive: -1.42%
4 | Cc1ccc(-n2nnnc2/C=C\Nc2cc(C)on2)cc1 |  | inconclusive: 9.44%
5 | Cc1ccc(C(C)C)c(OCCN(C)C)c1 |  | inactive
6 | COc1ccccc1/C=C/C(=O)OCC(=O)Nc1cc(C(F)(F)F)ccc1N1CCOCC1 |  | inconclusive: -0.116%
7 | COc1ccc(N2CCN(CCCNC(=O)C3(S(=O)(=O)c4ccc(Cl)cc4)CC3)CC2)cc1 |  | inconclusive: 7.57%
8 | O=S(=O)(CCN1CCN(c2ccccn2)CC1)c1ccc(Cl)cc1Cl |  | inactive
9 | CCC(C)/C(C)=N/NC(=O)c1ccc(CSc2nc3ccccc3s2)cc1 (configuration not stated) |  | inconclusive: -6.87%
10 | CCCCN1C(=O)NC(c2ccc(OC)cc2)C(C(=O)OCc2ccccc2)=C1C (configuration not stated) |  | inactive
11 | Cc1nn(Cc2cccc(C(=O)NC3CCCCC3)c2)c(C)c1Cl |  | inactive
12 | O=C(Nc1nnc(-c2ccccc2)s1)c1cccc(S(=O)(=O)N2CCOCC2)c1 | inconclusive: 5.17 µM [falling, single point] | 
13 | CCN(Cc1nc2ccccc2c(=O)[nH]1)C(=O)COc1ccccc1Cc1ccccc1 | inconclusive: 18.4 µM [falling, single point] | 
14 | Nc1[nH]nc2nc(-c3ccccc3)[nH]c(=O)c12 |  | inconclusive: 8.34%
15 | COc1ccc(C(CNC(=O)c2cccc(S(=O)(=O)N3CCCC3)c2)N2CCCC2)cc1 (configuration not stated) |  | inactive
16 | COc1ccccc1N1CC(C(=O)NC2CCCCCC2)CC1=O (configuration not stated) | inconclusive: 23.1 µM [falling, partial curve, poor fit] | 
17 | Cc1cc(NC(=O)c2c(F)cccc2Cl)n(-c2nc3ccccc3[nH]2)n1 | inconclusive: 29.1 µM [falling, single point] | 
18 | Cc1ccc(N2C(=O)N(CC(=O)Nc3ccccc3C)C(=O)C2C)cc1 (configuration not stated) |  | inconclusive: 7.8%
19 | Cc1nn(-c2ccccc2)c2sc(C(=O)OCc3nnc(-c4ccccc4)o3)cc12 | inconclusive: 0.411 µM [rising, full curve, poor fit] | 
20 | CCN(C(=O)COC(=O)c1ccc2[nH]c3c(c2c1)CCCC3)C1CCS(=O)(=O)C1 (configuration not stated) | inconclusive: 12.6 µM [falling, partial curve, poor fit] | 
21 | CCOC(=O)C1C(=O)NC(N2CCN(c3ccccc3)CC2)=NC1c1ccccc1 (configuration not stated) |  | inconclusive: -0.303%

Some of the entries so far, as labelled records:
Cc1ccc(C(C)C)c(OCCN(C)C)c1
  activity change, negative = inhibition: inactive
Cc1nn(Cc2cccc(C(=O)NC3CCCCC3)c2)c(C)c1Cl
  activity change, negative = inhibition: inactive
O=C(Nc1nnc(-c2ccccc2)s1)c1cccc(S(=O)(=O)N2CCOCC2)c1
  Potency: inconclusive: 5.17 µM [falling, single point]
COc1ccc(C(CNC(=O)c2cccc(S(=O)(=O)N3CCCC3)c2)N2CCCC2)cc1 (configuration not stated)
  activity change, negative = inhibition: inactive

(listing goes on)

Row | Structure (SMILES) | Potency | activity change, negative = inhibition
22 | CN(/N=C/c1ccc(N(C)C)cc1)C1=NS(=O)(=O)c2ccccc21 |  | inconclusive: -7.89%
23 | Cc1ccc(C(=O)/C=C/c2ccc(Br)cc2)o1 |  | inactive
24 | CCOC(=O)c1[nH]c(C)c(/C(O)=C2\C(=O)C(=O)N(CCCN3CCOCC3)C2c2cccs2)c1C (configuration not stated) |  | inconclusive: -19.9%
25 | COc1ccc(/C=C2\SC(=S)N(CCCC(=O)Nc3ccccc3C(=O)O)C2=O)cc1OC |  | inactive
26 | Cc1nc(OCC(=O)c2ccc(Cl)cc2)c(C#N)c2c1COC(C)(C)C2 |  | inconclusive: 13.2%
27 | Cc1cc2c3c(c1)C(C)(c1ccccc1)CC(C)(C)N3C(=O)C21C(C#N)=C(N)OC2=C1C(=O)CC(C)(C)C2 (configuration not stated) |  | inconclusive: -15.9%
28 | Cn1nc([N+](=O)[O-])nc1Sc1nnc(-c2ccccc2)o1 | inconclusive: 9.2 µM [cytotoxic, partial curve] | 
29 | Cc1[nH]c2ccccc2c1/C=N\NC(=O)CNc1ccc2c(c1)OCO2 |  | inconclusive: -10.4%
30 | CCCOc1ccc(CC(=O)NCc2ccco2)cc1OC |  | inactive
31 | Cc1ccc(Cl)c2sc(NC(=O)C3=COCCO3)nc12 |  | inconclusive: 3.25%
32 | Cc1cc(C(=O)N/N=C/c2ccc(-c3cccc(Cl)c3)o2)n[nH]1 |  | inactive
33 | CC(C)(C)c1ccc(/C=N/NC(=S)NCc2ccccc2)cc1 |  | inactive
34 | Cc1cc(C(=O)NNc2cc(Cl)ccc2Cl)no1 |  | inconclusive: 16.2%
35 | O=C(Nc1ccc2c(c1)C(=O)NC2=O)c1cccc(Cl)c1 |  | inactive
36 | CC(C)C[C@H](NC(=O)c1nc[nH]c1C(=O)N1CCC(C)CC1)C(=O)OC(C)(C)C |  | inconclusive: 0.0323%
37 | O=C(CSc1ncnc2sc3c(c12)CCCCC3)NCc1ccco1 | inconclusive: 20.6 µM [falling, partial curve] | 
38 | COc1ccc(OC)c2sc(N(CCN(C)C)C(=O)/C=C/c3cccs3)nc12 |  | inconclusive: 17.2%
39 | CCn1cc(S(=O)(=O)CC(=O)Nc2ccc3c(c2)OCCO3)c2ccccc21 |  | inconclusive: -27.9%
40 | O=C(OCCCN1CCCC1)C1(c2ccccc2)CCCC1 |  | inconclusive: 9.61%
41 | O=C(Nc1ccc(N2CCN(C(=O)c3ccco3)CC2)cc1)c1ccc(F)cc1 |  | inactive
42 | Cc1ccc(C(=O)NNC(=S)NC(=O)COc2ccccc2)cc1 | inconclusive: 1.84 µM [rising, full curve] | 

Copied from above, nos. 41 to 42
Row | Structure (SMILES) | Potency | activity change, negative = inhibition
41 | O=C(Nc1ccc(N2CCN(C(=O)c3ccco3)CC2)cc1)c1ccc(F)cc1 |  | inactive
42 | Cc1ccc(C(=O)NNC(=S)NC(=O)COc2ccccc2)cc1 | inconclusive: 1.84 µM [rising, full curve] | 

(next part)

Row | Structure (SMILES) | Potency | activity change, negative = inhibition
43 | NS(=O)(=O)c1ccc(NC2(C(=O)O)CCCC2)cc1 |  | inconclusive: 6.07%
44 | Cc1c(/C(Cc2ccccc2)=N/O)c2ccccc2n1C |  | inconclusive: 19.9%
45 | COC(=O)c1sccc1NC(=O)Nc1ccccc1OC |  | inconclusive: -17.4%
46 | CCC1=Nc2cc(C(=O)NCc3ccco3)ccc2Sc2ccccc21 |  | inconclusive: -10%
47 | COc1ccc(C)cc1NC(=O)CCCNC(=O)Cn1cnc2sc(C)c(C)c2c1=O |  | inactive
48 | COc1ccc(/C=C2\SC(=S)N(CC(=O)NCCO)C2=O)cc1 | inconclusive: 7.94 µM [falling, partial curve] | 
49 | CCOc1ccc(C(=O)NCC(=O)OCc2nnc(-c3ccccc3)o2)cc1OCC |  | inactive
50 | Cc1ccc(/C=N/NC(=O)CSc2nc3ccccc3n2Cc2ccccc2)o1 |  | inconclusive: -7.95%
51 | CCOC(=O)NC(c1ccccc1)C1CCCCC1=O (configuration not stated) |  | inconclusive: 6.51%
52 | COc1ccc(OC)c(CCNC(=O)CC2(CC3=NS(=O)(=O)c4ccccc4N3)CCCC2)c1 |  | inconclusive: -4.05%
53 | Cc1ccc(-c2cc(C(=O)O)c3cc(Br)ccc3n2)s1 | inconclusive: 35.5 µM [falling, single point] | 
54 | O=c1[nH][nH]c(C(F)(F)F)c1C=Nc1cccc(Cl)c1 |  | inconclusive: 7.41%
55 | COc1ccc(/C=C/C(=O)c2ccc(C)c([N+](=O)[O-])c2)cc1O | inconclusive: 18.4 µM [falling, single point] | 
56 | CCOc1ccc(Nc2nc(NCC3CCCO3)c3ccccc3n2)cc1 (configuration not stated) |  | inconclusive: -18.8%
57 | COc1ccc(-c2cc(-c3ccc(OC)cc3)nc(-c3ccc4c(c3)NC(=O)CO4)c2)cc1 | inconclusive: 2.91 µM [falling, full curve] | 
58 | COc1cc(NC(=O)CSCc2ccc(Cl)cc2Cl)c(C(=O)O)cc1OC |  | inconclusive: -6.21%
59 | COc1ccccc1CN(Cc1nc2ccccc2c(=O)[nH]1)S(=O)(=O)c1ccc(C)cc1 |  | inconclusive: 8.51%
60 | COc1ccccc1N(CC(=O)Nc1ccc(Cc2ccncc2)cc1)S(=O)(=O)c1ccccc1 |  | inactive
61 | O=C1c2ccccc2S(=O)(=O)N1Cc1nnc(-c2ccccc2Br)o1 | inconclusive: 7.31 µM [falling, partial curve] | 
62 | CC(C)CCNC(=O)COC(=O)c1cc(Br)c(Br)s1 |  | inconclusive: 4.91%
63 | CCN(CC)CCNC(=O)c1c(O)c2cccc3c2n(c1=O)CCC3 |  | inconclusive: -1.16%

Row | Structure (SMILES) | Potency | activity change, negative = inhibition
64 | O=C(COc1ccccc1)NCC(=O)Nc1cccc(S(=O)(=O)NC2=NCCC2)c1 |  | inactive
65 | Cc1cc(N2CCOCC2)nc2ccccc12 |  | inactive
66 | Cc1cccn2c(=O)c(C=O)c(Cl)nc12 | inconclusive: 28.2 µM [rising, partial curve, poor fit] | 
67 | Cc1cc(C)nc(SCC(=O)NC2CCCCC2C)n1 (configuration not stated) |  | inactive
68 | CC(C)N(Cc1ccccc1)c1ncnc2c1nnn2C |  | inactive
69 | CC(C)OCCCn1c(=O)c2ccccc2n2c(CCC(=O)O)nnc12 |  | inactive
70 | Cc1cccc(C)c1NC(=S)N1CCCN(Cc2ccc(F)cc2)C1 |  | inconclusive: -12.6%
71 | COc1cc2ncnc(NCc3ccc(C)cc3)c2cc1OC |  | inconclusive: -18.2%
72 | COc1cccc(NC(=O)c2ccnc(N3CCC(C(=O)NCc4cc(OC)ccc4OC)CC3)c2)c1 |  | inconclusive: 0.841%
73 | CC(C)(C)n1nnnc1C(c1cc2cc3c(cc2[nH]c1=O)OCCO3)N1CCSCC1 (configuration not stated) |  | inactive
74 | COc1ccc(-c2ccc(CCC(=O)O)n2NC(N)=O)cc1 | inconclusive: 11.2 µM [falling, partial curve] | 
75 | COc1ccc(NC(=O)C2=C(C)Nc3nc(CCCO)nn3C2c2ccc(O)cc2)cc1 (configuration not stated) |  | inactive
76 | COc1ccc(-c2csc3ncnc(Sc4nnnn4C)c23)cc1 | inconclusive: 11.6 µM [falling, partial curve, poor fit] | 
77 | O=C(CSc1nnc(SCc2ccc(Cl)cc2)s1)N/N=C/c1ccc(Cl)cc1Cl |  | inactive
78 | Cc1nc(Cl)sc1C(=O)Nc1ccc(C(C)(C)C)cc1 |  | inconclusive: -19.8%
79 | CCCCC1CCC(C(=O)Nc2ccccc2N2CCOCC2)CC1 (configuration not stated) |  | inconclusive: 6.1%
80 | O=C1c2ccccc2C(=O)c2c1ccc1c(=O)n(C3CCCCC3)[nH]c21 | inconclusive: 11.6 µM [rising, partial curve, poor fit] | 
81 | Cc1cc(NC(=O)/C=C/C(=O)N(CC(=O)NC2CCCC2)c2cccc3ccccc23)no1 |  | inconclusive: -11.7%
82 | Cc1cc(C)n2nc(C(=O)Nc3ccc4c(c3)CCC4)nc2n1 |  | inconclusive: 16.9%
